Test results taken from patent US20260001875A1, “AMINOPYRIMIDINYL DERIVATIVES FOR THE TREATMENT OF PARKINSON'S DISEASE” (UNIVERSITY OF DUNDEE, priority 2022, published 2026).

System: LRRK2
Experiment: NanoBRET-based ternary binding and cooperativity assay
Conditions: IC50 without VCB / IC50 with VCB
Experimental: The HEK293 cells were transfected with LRRK2-NanoLuc fusion vector (Promega, NV3401) following Promega's protocol and seeded into white 384-well plate (Corning3570) at a density of 6000 cells/well. The cells were then treated with 50 μg/mL of digitonin, 125 nM of LRRK2 tracer, testing compounds at decreasing concentrations (11 concentrations with 2-fold serial dilution starting from 10 μM) or testing compounds and VCB mix (11 concentrations with 2-fold serial dilution starting from 10 μM compound for the compound. The first 6 concentrations of VCB start from 32 μM with 2-fold dilution, the last 5 concentrations of VCB keep at 1 μM), and NanoBRET NanoGlo Substrate (Promega) at concentration recommended by the manufacturer's protocol. In the maximum signal control samples (DMSO control), DMSO was added instead of testing compounds. In the minimum signal control samples (no tracer control), DMSO and LRRK2 tracer dilution buffer were used to replace testing compounds and LRRK2 tracer separately. The filtered luminescence was measured within 10 min following addition of the substrate on a PHERAstar (BMG LABTECH) plate reader equipped with a 450-nm bandpass filter (donor) and a 600-nm long pass filter (acceptor). The fractional occupancy was calculated according to the equation: fractional occupancy=(mBRETtesting compound−mBRETno tracer control)/(mBRETDMSO control−mBRETno tracer control).

| SMILES | cooperativity (a) |
| --- | --- |
| CNc1nc(Nc2ccc(C(=O)N3CCN(CCOCCOCCSC(C)(C)[C@H](NC(=O)C4(F)CC4)C(=O)N4C[C@H](O)C[C@H]4C(=O)NCc4ccc(-c5scnc5C)cc4)CC3)cc2OC)ncc1Cl [SD75, (2S,4R)-1-((R)-3-((2-(2-(2-(4-(4-((5-chloro-4-(methylamino)pyrimidin-2-yl)amino)-3-methoxybenzoyl)piperazin-1-yl)ethoxy)ethoxy)ethyl)thio)-2-(1-fluorocyclopropane-1-carboxamido)-3-methylbutanoyl)-4-hydroxy-N-(4-(4-methylthiazol-5-yl)benzyl)pyrrolidine-2-carboxamide] | 0.79 |
| CNc1nc(Nc2ccc(C(=O)N3CCN(C[C@H]4CC[C@H](CSC(C)(C)[C@H](NC(=O)C5(F)CC5)C(=O)N5C[C@H](O)CC5C(=O)NCc5ccc(-c6scnc6C)cc5)CC4)CC3)cc2OC)ncc1Cl (stereo partly drawn) [XL01126, (2S,4R)-1-((R)-3-((((1R,4R)-4-((4-(4-((5-chloro-4-(methylamino)pyrimidin-2-yl)amino)-3-methoxybenzoyl)piperazin-1-yl)methyl)cyclohexyl)methyl)thio)-2-(1-fluorocyclopropane-1-carboxamido)-3-methylbutanoyl)-4-hydroxy-N-(4-(4-methylthiazol-5-yl)benzyl)pyrrolidine-2-carboxamide] | 5.7 |
| CNc1nc(Nc2ccc(C(=O)N3CCN(C[C@H]4CC[C@@H](CSC(C)(C)[C@H](NC(=O)C5(F)CC5)C(=O)N5C[C@H](O)CC5C(=O)NCc5ccc(-c6scnc6C)cc5)CC4)CC3)cc2OC)ncc1Cl (stereo partly drawn) [XL01134] | 1.4 |
